The other results are listed elsewhere or left out.
What follows are molecules tested on T1, CTL2-GFP (C. trachomatis L2/434/Bu, GFP-expressing). Details: bulk GFP, single well; 28.5 h, 10 µM; inhibitor.
T1 construct: L2/434/Bu, GFP-expressing
Design: species or system HeLa; Intracellular C. trachomatis growth in HeLa cells, bulk GFP fluorescence relative to DMSO
With Cc1ccc(Cn2c(CN3CCOCC3)nc3c2c(=O)n(C)c(=O)n3C)cc1 [CBK269583] the “% of control remaining” value was 102.474%.
For c1ccc(CSc2nc3ccccc3s2)nc1 [CBK027737], the “% of control remaining” value was 106.902%.
In the case of O=C(NCCCn1ccnn1)c1cccc(S(=O)(=O)N2CCCCC2)c1 [CBK304660], the “% of control remaining” value is reported as 130.744%.
In the case of O=C(c1ccco1)N1CCC[C@H]1[C@H](O)c1nccs1 [CBK284286], the “% of control remaining” value is reported as 102.802%.
O=S(=O)(NC1c2cccc3cccc(c23)C1Sc1ncccn1)c1ccc(Cl)cc1 (centres unmarked) [CBK264638] was tested, and the “% of control remaining” value was 104.877%.
With CN(C)c1cccc(-c2cncc(Nc3cccc(C(F)(F)F)c3)n2)c1 [CBK065786] the “% of control remaining” value was 152.004%.
CCn1cc(NC(=O)NC2CCN(c3ncccc3C#N)CC2)c(C)n1 [CBK307213] was tested, and the “% of control remaining” value was 139.564%.
Cc1noc(C)c1NC(=O)N(Cc1ccc(-c2ccccc2)cc1)CC1CCNCC1 [CBK056721] was tested, and the “% of control remaining” value was 105.355%.
For O=C(c1n[nH]c2c1CCCC2)N1CC(=O)N(CCc2ccccc2)C(=O)C1 [CBK288110], the “% of control remaining” value was 149.503%.
For O=C(c1ccco1)N1CCN(C(=S)Nc2ccc(S(=O)(=O)Nc3ncccn3)cc2)CC1 [CBK267096], the “% of control remaining” value was 57.0718%.
In the case of CCCn1ccnc1-c1cn(CCc2cc(O)nc(C)n2)nn1 [CBK306675], the “% of control remaining” value is reported as 112.952%.
For O=C(c1ccccc1)N1C[C@@H]2CCCCN(Cc3cccnc3)[C@@H]2C1 [CBK285512], the “% of control remaining” value was 97.3854%.
For CN(C)CCN1CCN(c2ccc(-c3ccsc3)cn2)CC1 [CBK036915], the “% of control remaining” value was 189.268%.
c1ccc2sc(CCCCc3nc4ccccc4s3)nc2c1 [CBK261248] was tested, and the “% of control remaining” value was 100%.
Oc1cc(Cl)c(-c2ccccc2)nn1 [CBK022028] was tested, and the “% of control remaining” value was 100.812%.
CC1(C(=O)O)NC(c2ccccc2O)C2C(=O)N(Cc3ccccc3)C(=O)C21 (centres unmarked) [CBK218007] was tested, and the “% of control remaining” value was 112.884%.
With Cn1ccnc1C(O)C1CCN(C(=O)NCCc2cccc(F)c2)CC1 (centres unmarked) [CBK304657] the “% of control remaining” value was 145.081%.
Cn1c(COc2ccccc2)nnc1SCC(=O)c1ccc(-c2ccccc2)cc1 [CBK267426] was tested, and the “% of control remaining” value was 129.181%.
For Cc1nccn1CCC1CCN(C(=O)CC2CCCCO2)CC1 (centres unmarked) [CBK281974], the “% of control remaining” value was 116.779%.
In the case of CCCn1cc(C(CC(=O)O)C(=O)O)c2ccccc21 (centres unmarked) [CBK267345], the “% of control remaining” value is reported as 155.153%.
For COCCn1c(SC2CCN(C)C2=O)nc2ccccc21 (centres unmarked) [CBK305131], the “% of control remaining” value was 79.033%.
NC(=O)COc1ccccc1O [CBK261029] was tested, and the “% of control remaining” value was 97.2315%.
Cc1ccc(NC(=O)N2CCC(C(=O)O)CC2)cc1 [CBK156077] was tested, and the “% of control remaining” value was 114.53%.
With Cc1ccccc1NC(=O)Cn1c(=O)cnc2ccccc21 [CBK287852] the “% of control remaining” value was 133.643%.
For CC(=O)N1CC2(CCN(Cc3nccn3C(C)C)CC2)CC1C(=O)O (centres unmarked) [CBK306587], the “% of control remaining” value was 95.0392%.
For O=C(C1=C(O)C(=O)N(CCN2CCOCC2)C1c1cccnc1)c1ccco1 (centres unmarked) [CBK264570], the “% of control remaining” value was 111.359%.
CCC#CC(=O)Nc1ccc(N2CCNCC2)nc1 [CBK004746T] was tested, and the “% of control remaining” value was 110.748%.
For Cc1ccc(S(=O)(=O)N(Cc2c(F)cccc2F)C2CCNCC2)cc1 [CBK163927T], the “% of control remaining” value was 100%.
For c1cncc(-c2nnc([C@H]3CCNC3)o2)c1 [CBK289396], the “% of control remaining” value was 111.484%.
O=C(NCCNc1ccc([N+](=O)[O-])cc1Cl)c1ccc(F)cc1 [CBK262344] was tested, and the “% of control remaining” value was 100%.
For N=C(Nc1nc(CSc2nnc(N)s2)cc(=O)[nH]1)Nc1ccc(Cl)cc1Cl [CBK268890], the “% of control remaining” value was 127.124%.
For O=C(NCc1ccc(Cl)cc1)c1cnc2ccc(CN3CCSCC3)cc2c1O [CBK018010], the “% of control remaining” value was 105.488%.
For CN(C)CCN(C)C(=O)c1ccc(-c2cccc(N(C)C)c2)nc1N(C)C [CBK106077], the “% of control remaining” value was 132.757%.
With O=C(CSc1nnc2sc3ccccc3n12)N1N=CCC1c1ccccc1 (centres unmarked) [CBK266527] the “% of control remaining” value was 158.858%.
CCNC(=O)C1(Cc2ccccc2-c2ccncc2)CCOCC1 [CBK285216] was tested, and the “% of control remaining” value was 129.819%.
In the case of COc1ccc(OC)c(C(O)c2nc3ccccc3n2C(C)C)c1 (centres unmarked) [CBK263474], the “% of control remaining” value is reported as 120.255%.
With Nc1cccc(-c2nc(-c3cccs3)cnc2N)c1 [CBK063923] the “% of control remaining” value was 135.698%.
For CN(C)CCCNC(=O)c1ccc(/C=N/O)nc1 [CBK288489], the “% of control remaining” value was 80.8763%.
With CCn1ncnc1CN1CCN(C2Cc3ccccc3C2)CC1 [CBK304401] the “% of control remaining” value was 160.544%.
With COc1cc(CNc2nccnc2-c2ccc(C(=O)N3CCOCC3)cc2)cc(OC)c1 [CBK036866] the “% of control remaining” value was 151.312%.
In the case of C[C@H](c1ccccc1)n1c(=O)[nH]c2ncc(-c3cccc4cccnc34)nc21 [CBK064237], the “% of control remaining” value is reported as 182.833%.
CCC(CNC(=O)c1cccc(C)n1)N1CCCC1 (centres unmarked) [CBK304803] was tested, and the “% of control remaining” value was 92.2466%.
In the case of Cc1cccc(C(=O)NNC(=O)c2cccc(Cl)c2)c1 [CBK261676], the “% of control remaining” value is reported as 98.735%.
In the case of COc1ccc(CCNC(=O)C(N)=O)cc1OC [CBK288457], the “% of control remaining” value is reported as 141.191%.
With CCCc1cc(=O)oc2cc(OCc3ccc(C(=O)O)o3)ccc12 [CBK264786] the “% of control remaining” value was 119.04%.
For O=C1CCC(=O)N1CCOc1nccnc1OC1CCN(CC2CCCCC2)CC1 [CBK084357], the “% of control remaining” value was 86.2221%.
In the case of N=c1n(CCN2CCOCC2)c2ccccc2n1CC(O)c1cccs1 (centres unmarked) [CBK262895C], the “% of control remaining” value is reported as 113.532%.
In the case of O=C(N/N=C/c1ccccc1Cl)c1ccc(C(=O)N/N=C/c2ccccc2Cl)cc1 [CBK261698], the “% of control remaining” value is reported as 109.341%.
For CN1CCN(c2ccccc2NC(=O)c2ccc3ccccc3c2)CC1 [CBK268486], the “% of control remaining” value was 90.4708%.
For COc1ccc(C(C)C)cc1-c1nc2ncccc2cc1N [CBK067614], the “% of control remaining” value was 86.7346%.
In the case of COc1ccc(-c2nccnc2NCC2CC2)cc1 [CBK038048], the “% of control remaining” value is reported as 208.041%.
With Cc1cccc(NCC2CCN(Cc3cc(=O)n4ccccc4n3)C2)n1 (centres unmarked) [CBK305756] the “% of control remaining” value was 110.381%.
With CCCCN(C)S(=O)(=O)c1ccc(C(C)(C)CC)cc1 [CBK044836] the “% of control remaining” value was 103.887%.
